Results on three substances are retold here after doi:10.1101/2022.03.06.483161.

Sequences of proteins named here, by UniProt entry; tags and fusion partners are left off.
UniProt O00570: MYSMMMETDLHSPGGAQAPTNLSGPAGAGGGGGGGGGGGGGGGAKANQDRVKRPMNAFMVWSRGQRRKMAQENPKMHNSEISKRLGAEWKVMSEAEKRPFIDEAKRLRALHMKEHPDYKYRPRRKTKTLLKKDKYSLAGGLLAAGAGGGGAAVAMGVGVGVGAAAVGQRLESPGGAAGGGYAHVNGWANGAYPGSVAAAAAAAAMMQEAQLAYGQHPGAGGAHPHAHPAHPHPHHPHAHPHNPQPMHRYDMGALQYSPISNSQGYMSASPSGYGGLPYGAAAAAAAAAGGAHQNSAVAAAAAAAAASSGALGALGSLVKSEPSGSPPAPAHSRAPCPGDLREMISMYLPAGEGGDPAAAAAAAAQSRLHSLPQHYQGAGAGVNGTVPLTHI
UniProt Q99081: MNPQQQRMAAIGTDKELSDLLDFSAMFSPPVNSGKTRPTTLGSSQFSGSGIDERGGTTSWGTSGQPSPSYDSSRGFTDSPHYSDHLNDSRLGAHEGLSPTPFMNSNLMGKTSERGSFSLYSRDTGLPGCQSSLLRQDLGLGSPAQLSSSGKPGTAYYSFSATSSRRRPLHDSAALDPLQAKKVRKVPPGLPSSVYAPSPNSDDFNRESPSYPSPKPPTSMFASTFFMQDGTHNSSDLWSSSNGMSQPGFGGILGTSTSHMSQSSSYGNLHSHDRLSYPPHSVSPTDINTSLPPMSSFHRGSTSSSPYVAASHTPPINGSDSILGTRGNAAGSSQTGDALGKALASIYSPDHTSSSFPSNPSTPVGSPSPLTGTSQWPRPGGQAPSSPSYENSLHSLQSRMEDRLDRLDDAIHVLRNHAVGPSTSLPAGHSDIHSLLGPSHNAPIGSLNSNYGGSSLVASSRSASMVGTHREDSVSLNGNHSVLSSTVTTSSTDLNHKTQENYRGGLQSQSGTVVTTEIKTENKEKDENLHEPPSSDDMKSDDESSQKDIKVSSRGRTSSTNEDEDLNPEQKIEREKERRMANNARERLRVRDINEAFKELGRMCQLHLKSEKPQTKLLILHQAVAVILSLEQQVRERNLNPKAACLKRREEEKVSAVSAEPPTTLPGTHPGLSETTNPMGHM

No constants are given. Whether binding was seen depends on the method and setting. In cells and extracts the contact can be indirect. These calls come from enrichment with a bait or labelling near it, and not all partners need be listed. Where a sequence is shown, tags or fusion partners need not be part of it.

The assay deals with T1, FLAG-NKX2-1 (UniProt P43699).
T1 sequence: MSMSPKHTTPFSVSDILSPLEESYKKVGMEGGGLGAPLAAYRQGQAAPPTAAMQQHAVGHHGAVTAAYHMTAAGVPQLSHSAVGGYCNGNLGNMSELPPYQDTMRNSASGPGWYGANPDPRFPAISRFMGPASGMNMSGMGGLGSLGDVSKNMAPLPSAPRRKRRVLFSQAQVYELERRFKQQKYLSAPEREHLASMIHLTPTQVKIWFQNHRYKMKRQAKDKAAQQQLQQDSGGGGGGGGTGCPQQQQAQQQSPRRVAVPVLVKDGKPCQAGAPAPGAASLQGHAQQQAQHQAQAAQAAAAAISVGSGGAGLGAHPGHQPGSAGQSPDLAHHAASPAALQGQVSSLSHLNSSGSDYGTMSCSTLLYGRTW
Put plainly: affinity purification with mass spectrometry.
On to “SOX1 (endogenous) (from UniProt O00570 1-391)”, for which the binding entry is reported as “binds”.

Consider TCF12 (from UniProt Q99081 1-682), for which the binding entry is “binds”.

In the case of NFIB (from UniProt O00712 1-420), the binding result was “binds”.
